These are yes or no findings as the source states them, for the method shown. In cells and extracts the contact can be indirect. Some binding calls cover weakened binding; strength is not graded here. Tags and fused reporters may be left off the sequences shown.

Sequences of proteins named here, by UniProt entry; tags and fusion partners are left off.
UniProt Q9Y5K6: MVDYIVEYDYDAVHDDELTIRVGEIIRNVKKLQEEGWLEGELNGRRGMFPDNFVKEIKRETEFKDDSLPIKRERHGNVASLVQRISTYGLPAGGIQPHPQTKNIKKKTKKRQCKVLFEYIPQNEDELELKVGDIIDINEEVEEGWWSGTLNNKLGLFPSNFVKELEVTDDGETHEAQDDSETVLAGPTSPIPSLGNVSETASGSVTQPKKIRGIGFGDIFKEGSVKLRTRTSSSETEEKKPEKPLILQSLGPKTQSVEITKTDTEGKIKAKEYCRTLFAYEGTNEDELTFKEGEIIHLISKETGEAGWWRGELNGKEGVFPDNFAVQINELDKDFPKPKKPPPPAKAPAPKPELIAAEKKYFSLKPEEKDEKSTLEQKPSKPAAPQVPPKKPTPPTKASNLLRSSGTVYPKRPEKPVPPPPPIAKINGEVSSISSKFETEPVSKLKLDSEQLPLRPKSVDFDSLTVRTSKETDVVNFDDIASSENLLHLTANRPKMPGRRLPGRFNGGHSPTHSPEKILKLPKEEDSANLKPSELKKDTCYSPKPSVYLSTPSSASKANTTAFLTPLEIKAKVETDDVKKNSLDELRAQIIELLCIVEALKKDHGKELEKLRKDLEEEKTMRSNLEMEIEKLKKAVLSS

Assay [1] deals with Flag-tagged CD2AP (control protein) (UniProt Q9Y5K6). Description: co-IP; HEK293T cells co-transfected with Flag- and V5-tagged proteins; lysis in IP buffer (1% Triton-X 100, 20 mM Tris pH 7.5, 50 mM NaCl); anti-FLAG M2 affinity beads, 4°C; blot with anti-V5.
Assay [2] has as its target Flag-tagged human Rheb (human) (UniProt Q15382). The description is as above.

B1: V5-tagged truncated oncogenic form of human Dbl (domain or fragment, UniProt P10911 498-925)
chain: HVLNELIQTERVYVRELYTVLLGYRAEMDNPEMFDLMPPLLRNKKDILFGNMAEIYEFHNDIFLSSLENCAHAPERVGPCFLERKDDFQMYAKYCQNKPRSETIWRKYSECAFFQECQRKLKHRLRLDSYLLKPVQRITKYQLLLKELLKYSKDCEGSALLKKALDAMLDLLKSVNDSMHQIAINGYIGNLNELGKMIMQGGFSVWIGHKKGATKMKDLARFKPMQRHLFLYEKAIVFCKRRVESGEGSDRYPSYSFKHCWKMDEVGITEYVKGDNRKFEIWYGEKEEVYIVQASNVDVKMTWLKEIRNILLKQQELLTVKKRKQQDQLTERDKFQISLQQNDEKQQGAFISTEETELEHTSTVVEVCEAIASVQAEANTVWTEASQSAEISEEPAEWSSNYFYPTYDENEEENRPLMRPVSEMALLY
Take B1: the binding result in assay [1] is “no binding”; in assay [2], “binds”.

B2: V5-tagged full-length proto-oncogenic form of human Dbl (protein, UniProt P10911 1-925)
chain: MAEANPRRGKMRFRRNAASFPGNLHLVLVLRPTSFLQRTFTDIGFWFSQEDFMLKLPVVMLSSVSDLLTYIDDKQLTPELGGTLQYCHSEWIIFRNAIENFALTVKEMAQMLQSFGTELAETELPDDIPSIEEILAIRAERYHLLKNDITAVTKEGKILLTNLEVPDTEGAVSSRLECHRQISGDWQTINKLLTQVHDMETAFDGFWEKHQLKMEQYLQLWKFEQDFQQLVTEVEFLLNQQAELADVTGTIAQVKQKIKKLENLDENSQELLSKAQFVILHGHKLAANHHYALDLICQRCNELRYLSDILVNEIKAKRIQLSRTFKMHKLLQQARQCCDEGECLLANQEIDKFQSKEDAQKALQDIENFLEMALPFINYEPETLQYEFDVILSPELKVQMKTIQLKLENIRSIFENQQAGFRNLADKHVRPIQFVVPTPENLVTSGTPFFSSKQGKKTWRQNQSNLKIEVVPDCQEKRSSGPSSSLDNGNSLDVLKNHVLNELIQTERVYVRELYTVLLGYRAEMDNPEMFDLMPPLLRNKKDILFGNMAEIYEFHNDIFLSSLENCAHAPERVGPCFLERKDDFQMYAKYCQNKPRSETIWRKYSECAFFQECQRKLKHRLRLDSYLLKPVQRITKYQLLLKELLKYSKDCEGSALLKKALDAMLDLLKSVNDSMHQIAINGYIGNLNELGKMIMQGGFSVWIGHKKGATKMKDLARFKPMQRHLFLYEKAIVFCKRRVESGEGSDRYPSYSFKHCWKMDEVGITEYVKGDNRKFEIWYGEKEEVYIVQASNVDVKMTWLKEIRNILLKQQELLTVKKRKQQDQLTERDKFQISLQQNDEKQQGAFISTEETELEHTSTVVEVCEAIASVQAEANTVWTEASQSAEISEEPAEWSSNYFYPTYDENEEENRPLMRPVSEMALLY
B2: the binding entry in assay [1] was “no binding”; in assay [2], “binds”.

These data come from paper PMC5839386.
